This test addresses PsCA1 (Pseudomonas aeruginosa, UniProt Q9I730). Briefly: biochemical. The following applies: stopped-flow CO2 hydrase assay, mean from 3 assays. The procedure: The CA isoforms belong to different classes of CA enzymes characterized by different kinetic and structural features to assess isoform selectivity.
An Applied Photophysics stopped-flow instrument was used to assay CA-catalyzed CO2 hydration activity. […] The uncatalyzed rates were determined in the same manner and subtracted from the total observed rates. Stock solutions of the inhibitor (0.1 mM) were prepared in distilled–deionized water, and dilutions up to 0.01 nM were done thereafter with the assay buffer. Inhibitor and enzyme solutions were preincubated together for 15 min at room temperature prior to the assay to allow for the formation of the E–I complex. The inhibition constants were obtained by non-linear least-squares methods using PRISM 3 and the Cheng–Prusoff equation as reported earlier and represent the mean from at least three different determinations. All CA isoforms were recombinant proteins obtained in house, as reported earlier.

The chains behind the UniProt entries cited, without tags or fusion partners.
UniProt Q9I730, entry or part of it: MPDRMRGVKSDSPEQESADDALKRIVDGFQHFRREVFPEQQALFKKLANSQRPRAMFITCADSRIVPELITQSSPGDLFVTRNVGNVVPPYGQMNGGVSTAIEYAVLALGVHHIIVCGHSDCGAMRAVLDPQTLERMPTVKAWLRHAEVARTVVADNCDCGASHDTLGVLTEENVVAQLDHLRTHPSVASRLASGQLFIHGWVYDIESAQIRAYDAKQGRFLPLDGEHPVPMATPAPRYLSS

`CC(=O)Nc1nnc(S(N)(=O)=O)s1` [AAZ, acetazolamide, reference compound] returned a Ki of 0.037 µM.

One may read the Ki as a measure of affinity in units of concentration, obtained from inhibition or displacement. Low values mean higher affinity, high ones lower affinity.

The record behind these values is article PMC10254030, “Photoactivatable Heptamethine-Based Carbonic Anhydrase Inhibitors Leading to New Anti-Antibacterial Agents” (International Journal of Molecular Sciences, 2023).
